Patent publication US9023847B2, “Azaheterocyclic compounds” (Merck Patent GmbH, priority 2009, dated 2015)

Protein sequences, listed by entry. Tags and fused reporters are not part of them.
UniProt P23443, whole entry T412E: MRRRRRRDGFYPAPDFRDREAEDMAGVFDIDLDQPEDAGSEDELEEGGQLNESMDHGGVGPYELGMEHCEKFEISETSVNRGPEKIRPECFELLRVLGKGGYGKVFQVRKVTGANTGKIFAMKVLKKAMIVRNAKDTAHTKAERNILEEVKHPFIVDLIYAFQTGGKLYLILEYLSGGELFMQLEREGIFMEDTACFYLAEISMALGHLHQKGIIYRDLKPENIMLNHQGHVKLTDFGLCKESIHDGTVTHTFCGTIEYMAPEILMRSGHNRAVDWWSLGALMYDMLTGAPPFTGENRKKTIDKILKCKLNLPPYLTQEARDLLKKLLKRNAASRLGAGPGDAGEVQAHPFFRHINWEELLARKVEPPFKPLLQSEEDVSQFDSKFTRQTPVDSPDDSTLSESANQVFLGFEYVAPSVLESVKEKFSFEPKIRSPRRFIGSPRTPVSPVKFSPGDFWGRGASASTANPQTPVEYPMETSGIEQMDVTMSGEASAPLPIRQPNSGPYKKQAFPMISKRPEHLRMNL

Target: P70S6K (T412E mutant, Millipore) (Homo sapiens, UniProt P23443, T412E)
Test: p70S6K enzyme assay
Settings: read-out: IC50 (p70S6K); class symbol; 3 nM P70S6K, 24 μM ATP
Protocol: P70S6K inhibitor compounds are diluted and plated in 96 well plates. A reaction mixture including the following components is then added to the compound plate to initiate the enzyme reaction; P70S6K (3 nM, T412E mutant, Millipore) is mixed with 24 μM ATP in an assay buffer containing 100 mM Hepes (pH 7.5), 5 mM MgCl2, 1 mM DTT, 0.015% Brij and 1 μM of the substrate peptide FITC-AHA-AKRRRLSSLRA-OH (derived from the S6 ribosomal protein sequence, FITC=fluorescein isothiocyanate, AHA=6-aminohexanoic acid). The reaction is incubated for 90 min at 25° C., before the addition of 10 mM EDTA to stop the reaction. The proportion of substrate and product (phosphorylated) peptide is analysed on a Caliper Life Sciences Lab Chip 3000, using a pressure of −1.4 psi, and upstream and downstream voltages of −3000 and −700 respectively. Product peaks are resolved before substrate peaks on the resulting chromatograms.

Question: How did the IC50 turn out when `O=C(NCCNCc1ccc[nH]1)c1sccc1Nc1ccnc2[nH]ccc12` was run?
Answer: Its IC50 is less than 100 nM.

Structures were worked out from names or drawings and are uncertain.
